Test results from article PMC7528131.
No constants are given. Whether binding was seen depends on the method and setting. Binding seen in cells or lysates may run through a third protein. Some results given as binding are weak or reduced against the parent protein; the word gives no strength.

Sequences of proteins named here, by UniProt entry; tags and fusion partners are left off. Residues count along the entry.
UniProt P58390, residues 266-839: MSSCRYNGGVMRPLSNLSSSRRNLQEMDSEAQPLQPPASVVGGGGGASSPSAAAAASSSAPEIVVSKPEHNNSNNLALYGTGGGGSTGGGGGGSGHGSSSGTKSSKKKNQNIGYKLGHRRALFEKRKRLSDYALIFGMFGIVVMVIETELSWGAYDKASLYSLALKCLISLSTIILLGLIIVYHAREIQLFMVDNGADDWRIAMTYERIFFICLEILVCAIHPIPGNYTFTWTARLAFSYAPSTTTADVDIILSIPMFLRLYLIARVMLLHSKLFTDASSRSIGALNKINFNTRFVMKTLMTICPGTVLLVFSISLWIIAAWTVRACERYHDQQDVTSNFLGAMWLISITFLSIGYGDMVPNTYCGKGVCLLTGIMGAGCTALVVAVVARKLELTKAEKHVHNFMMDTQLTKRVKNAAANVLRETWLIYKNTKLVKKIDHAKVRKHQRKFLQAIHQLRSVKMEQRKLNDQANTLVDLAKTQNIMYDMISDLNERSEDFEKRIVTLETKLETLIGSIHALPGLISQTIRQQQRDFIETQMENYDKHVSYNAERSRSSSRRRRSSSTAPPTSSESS

Target: small-conductance calcium-activated potassium channel subtype 2 (SK2) (mouse (endogenous in spinal cord)) (UniProt P58390)
Experiment: co-IP; mouse spinal cord lysate supernatant incubated with anti-SK2 for 30 min, then protein A/G agarose beads overnight at 4°C; beads rinsed three times; eluate blotted with anti-MPP2; IgG as control

binding: binds
B1: membrane palmitoylated protein 2 (MPP2) (protein, UniProt Q9WV34 1-552)
chain: MPVAATNSESAMQQVLDNLGSLPNATGAAELDLIFLRGIMESPIVRSLAKAHERLEETKLEAVRDNNLELVQEILRDLAELAEQSSTAAELARILQEPHFQSLLETHDSVASKTYETPPPSPGLDPTFSNQPVPPDAVRMVGIRKTAGEHLGVTFRVEGGELVIARILHGGMVAQQGLLHVGDIIKEVNGQPVGSDPRALQELLRSASGSVILKILPSYQEPHLPRQVFVKCHFDYDPARDSLSPCKEAGLRFNAGDLLQIVNQDDANWWQACHVEGGSAGLIPSQLLEEKRKAFVKRDLELTPTSGTLCGSLSGKKKKRMMYLTTKNAEFDRHELLIYEEVARMPPFRRKTLVLIGAQGVGRRSLKNKLILWDPDRYGTTVPYTSRRPKDSEREGQGYSFVSRGEMEADIRAGRYLEHGEYEGNLYGTRIDSIRGVVASGKVCVLDVNPQAVKVLRTAEFVPYVVFIEAPDYETLRAMNRAALESGVSTKQLTEADLRRTVEESSRIQRGYGHYFDLSLVNSNLERTFRELQTAMEKLRTEPQWVPVSWVY
